Source: PubChem BioAssay AID2061306 (National Center for Advancing Translational Sciences (NCATS), 2025)
The shares of active, inactive and inconclusive entries below differ from those in the screen. A potency beside an inconclusive call is a rough fit, not a confirmed value. Activity calls are given as the source filed them. Calls come from the whole dose curve; as a rule, active = well fitted inhibition curve with a large enough effect; inconclusive = small, poorly fitted or top-dose-only effect; inactive = flat fitted curve, though single readings scatter. Square brackets hold non-standard residues; d marks the D form. Peptide text beside a SMILES is read from it. Dolaproine = CO[C@@H]([C@@H]1CCCN1)[C@@H](C)C(=O)O; Dil = CC[C@H](C)[C@H](NC)[C@@H](CC(=O)O)OC; NMeV = CN[C@H](C(=O)O)C(C)C

experiment: Identification of antibody-drug conjugate (ADC) payloads which are substrates of ATP-binding cassette drug efflux transporters: ABCB1-HEK293-pcDNA cell line; conditions: HEK293 empty-vector (pcDNA) control viability, CellTiter-Glo, 48 h
Excerpt: Antibody-drug conjugates (ADCs) feature an antibody recognizing a specific protein joined to a potent toxic payload. Numerous antibody-drug conjugates have received FDA approval; however, clinical resistance arises. Resistance mechanisms include decreased expression or mutation of the antibody target, impaired payload release, or increased expression of ATP-binding cassette (ABC) efflux transporters associated with multidrug resistance. We therefore sought to characterize the interaction of ABC multidrug transporters with ADC payloads. We performed a high-throughput screen with 27 common ADC payloads using cells lines expressing ABC transporters P-glycoprotein (P-gp, encoded by ABCB1) or ABCG2 (encoded by ABCG2). Confirmatory assays were also performed using cells transfected to express P-gp, ABCG2, or MRP1 (encoded by ABCC1). Several commonly used ADC payloads were substrates of P-gp, including calicheamicin gamma1, monomethyl auristatin E, DM1, and DM4. All the pyrrolobenzodiazepines tested - SJG136, SGD-1882, SG2057, and SG3199 - were substrates of P-gp, ABCG2, and MRP1. […] These findings highlight the risk of transporter-mediated resistance with certain ADC payloads and underscore the importance of selecting payloads that evade ABC transporter recognition in future ADC development.
HEK-293 cells were transfected with empty vector (pcDNA) or vector containing the human ABCB1 (MDR-19), ABCG2 (R-5), or ABCC1 gene (MRP1) and were maintained in EMEM with 2 mg/mL G418 added to maintain transporter expression. The HeLa derivative KB-3-1 and the P-gp overexpressing KB-8-5-11 subline were maintained in DMEM; KB-8-5-11 additionally received 100 ng/mL colchicine. H460 parental cells were obtained from the Division of Cancer Treatment and Diagnosis Tumor Repository, National Cancer Institute at Frederick, MD and were cultured in RPMI. The ABCG2 expressing subline H460 MX20 was generated by selecting H460 cells in 20 nM mitoxantrone. Media in all cases was supplemented with 10% FBS and 1% penicillin-streptomycin. We explored 27 common ADC payloads, in two orthogonal, paired cell line sets-a drug selected and transfected set for each transporter--to identify substrates of the ABC transporters P-gp and ABCG2. Compounds were sourced from Levena Biopharma (San Diego, CA), Selleck Chem (Houston, TX), ChemieTek (Indianapolis, IN), or Microsource Discovery Systems (Gaylordsville, CT). Screening was performed as previously described. Briefly, cells were plated at a density of 500 cells/well in 1536 well plates with compounds added using a 1536-head pin tool (Kalypsys, San Diego CA). Cells were incubated with cytotoxic drugs and processed with CellTiter Glo reagent (Promega, Madison, WI) to determine viability after 48 hours. P-gp substrates were identified by comparing compound activity between paired sets of low-expressing (sensitive) and over-expressing (resistant) cell lines.

SMILES	Potency
CCN(C(C)=O)[C@H]1CO[C@@H](O[C@H]2[C@H](O[C@H]3C#C/C=C\C#C[C@]4(O)CC(=O)C(NC(=O)OC)=C3/C4=C\CSSSC)O[C@H](C)[C@@H](NO[C@H]3C[C@H](O)[C@H](SC(=O)c4c(C)c(I)c(O[C@@H]5O[C@@H](C)[C@H](O)[C@@H](OC)[C@H]5O)c(OC)c4OC)[C@@H](C)O3)[C@@H]2O)C[C@@H]1OC	active: 1.5 nM
CCN[C@H]1CO[C@@H](O[C@H]2[C@H](O[C@H]3C#C/C=C\C#C[C@]4(O)CC(=O)C(NC(=O)OC)=C3/C4=C\CSSSC)O[C@H](C)[C@@H](NO[C@H]3C[C@H](O)[C@H](SC(=O)c4c(C)c(I)c(O[C@@H]5O[C@@H](C)[C@H](O)[C@@H](OC)[C@H]5O)c(OC)c4OC)[C@@H](C)O3)[C@@H]2O)C[C@@H]1OC	active: 0.2 nM
CC[C@H](C)[C@@H]([C@H](N)CC(=O)N1CCC[C@H]1[C@H](OC)[C@@H](C)C(=O)N[C@@H](Cc1ccccc1)c1nccs1)N(C)C(=O)[C@@H](NC(=O)[C@@H](NC)C(C)C)C(C)C	inconclusive: 0.3 nM [inhibitor]
COc1cccc2c1C(=O)c1c(O)c3c(c(O)c1C2=O)C[C@@](O)(C(=O)CO)C[C@@H]3O[C@H]1C[C@H]2[C@H](O[C@@H]3[C@@H](OC)OCCN32)[C@H](C)O1	active: 0.0334 nM
COc1ccc(C2=CN3C(=O)c4cc(OC)c(OCCCOc5cc6c(cc5OC)C(=O)N5C=C(c7ccc(N)cc7)C[C@@H]5C=N6)cc4N=C[C@H]3C2)cc1	active: 1.3 nM
CC[C@H](C)[C@@H]([C@@H](CC(=O)N1CCC[C@H]1[C@H](OC)[C@@H](C)C(=O)N[C@@H](Cc1ccccc1)C(=O)O)OC)N(C)C(=O)[C@@H](NC(=O)[C@@H](NC)C(C)C)C(C)C (H-[NMeV]V[Dil][Dolaproine]F-OH)	inconclusive: 839 nM [inhibitor, full curve]
CC[C@H](C)[C@@H]([C@H](N)CC(=O)N1CCC[C@H]1[C@H](OC)[C@@H](C)C(=O)N[C@@H](Cc1ccccc1)c1nccs1)N(C)C(=O)[C@@H](NC(=O)[C@H](C(C)C)N(C)C)C(C)C	inconclusive: 0.5 nM [inhibitor]
CC[C@]1(O)CC2CN(CCc3c([nH]c4ccccc34)[C@@](C(=O)OC)(c3cc4c(cc3OC)N(C)[C@H]3[C@@](O)(C(=O)OC)[C@H](OC(C)=O)[C@]5(CC)C=CCN6CC[C@]43[C@@H]65)C2)C1 (some centres undefined)	inconclusive: 11.8 nM [inhibitor, full curve]
Cc1nc(Nc2ncc(C(=O)Nc3c(C)cccc3Cl)s2)cc(N2CCN(CCO)CC2)n1	inconclusive: 11800 nM [inhibitor, partial curve]
